# Measured values taken from PubChem BioAssay AID1347075 (National Center for Advancing Translational Sciences (NCATS), 2019).
# In all, about 400,000 compounds went through this assay and about 5,500 (1.4%) were called active. The shares of active, inactive and inconclusive entries below differ from those in the screen. Calls follow the shape of the dose curve; as a rule, active = well fitted cell-killing curve with a large enough effect; inconclusive = small, poorly fitted or top-dose-only effect, or effect the other way; inactive = flat fitted curve, though single readings scatter. A potency beside an inconclusive call is a rough fit, not a confirmed value.
# Assay: qHTS assay for MDR1-selective chemotherapeutics: Primary screen using the parental adenocarcinoma cell KB-3-1; also: nearly all actives have a fitted effect of over 60% in size
# Details: KB-3-1 viability, CellTiter-Glo ATP luminescence, 72 h; activity change, negative = cytotoxic: at 46.1 µM (top of the series)
# Outline: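 Cells are dispensed, compounds pinned in, plates held at 37 °C for 72 h, then CellTiter-Glo is added and luminescence read after 10 minutes. Cell line: parental KB-3-1 in phenol-red-free DMEM, 10% FBS.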
# % is scaled to controls: 0 for no effect and ±100 for the full control effect; potency is read from the fitted curve at half-maximal effect.
SMILES,Potency,"activity change, negative = cytotoxic"
CC(C)c1ccccc1NC(=O)Nc1nc(C(N)Cc2ccc(C(F)(F)F)cc2)cs1 (configuration not stated),"inconclusive: 29.1 µM [cytotoxic, single point]",–
COc1ccc(OCCN2CCCC2)cc1Nc1nnc(Cl)c(Nc2ccccc2S(C)(=O)=O)n1,"inconclusive: 25.9 µM [cytotoxic, single point]",–
F[B-](F)(F)c1cc2cc(Br)ccc2s1,–,inactive: -6.92%
CC(=O)O/N=C(\N)c1cnn2c(C(F)(F)F)cc(C(F)(F)F)nc12,"inconclusive: 0.411 µM [rising, full curve]",–
CN(Cc1ccc(F)cc1)C(=O)c1cccc(S(=O)(=O)N2CCN(c3ccc(F)cc3)CC2)c1,active: 13 µM,–
COc1ccc(/C=C/c2ccccn2)cc1OC,"inconclusive: 0.651 µM [cytotoxic, full curve, poor fit]",–
Cc1cc(O)c(C(C)C)cc1NC(=S)Nc1cc(C(C)C)c(O)cc1C,"inconclusive: 29.1 µM [cytotoxic, single point]",–
C=CCn1c(O)c(N=NC(=S)Nc2ccc(OC)c(Cl)c2)c2ccccc21,"inconclusive: 5.8 µM [cytotoxic, full curve]",–
COc1ccc(N(CC(=O)Nc2cccnc2)S(=O)(=O)c2ccccc2)cc1OC,–,inactive: -2.71%
Cc1nn(-c2c(Cl)cc(Cl)cc2Cl)c(=O)c2ccccc12,"inconclusive: 29.1 µM [cytotoxic, single point]",–
COc1cccc(-c2sc3ccc(OC)cc3c2-c2ccc(OCCN(C)C)cc2)c1,"inconclusive: 29.1 µM [cytotoxic, single point]",–
O=C(Nc1ccc(Cl)c(Cl)c1)N1CCCCCC1,–,inactive: 6.83%
COc1cc(/C=C(/C#N)C(=O)NCCc2c[nH]c3ccccc23)ccc1OCc1ccccc1F,"inconclusive: 16.4 µM [cytotoxic, single point]",–
Cc1ccc(N(CC(=O)NCCc2ccc(Cl)cc2)S(=O)(=O)c2c(C)noc2C)cc1,inactive,–
N#Cc1c(Nc2ccccc2)[n+]([O-])c2ccc(Cl)cc2[n+]1[O-],"inconclusive: 29.1 µM [cytotoxic, single point]",–
COc1ccc(CN2CCc3c(c(=O)n4ncc(C(=O)N5CCN(c6ccccc6OC)CC5)c4n3C)C2)cc1,"inconclusive: 3.26 µM [cytotoxic, full curve, poor fit]",–
CCC(=O)Nc1nc(-c2ccc3c(c2)CC(C)N3S(C)(=O)=O)cs1 (configuration not stated),"inconclusive: 0.731 µM [rising, full curve, poor fit]",–
CC(OC(=O)Cn1nnc2ccccc21)C(=O)NC1CCCC1 (configuration not stated),"inconclusive: 20.6 µM [rising, partial curve, poor fit]",–
COC(=O)[C@]12CCCCC=C1N(Cc1cccc3ccccc13)C(=O)[C@H](CC(=O)N1CCCC1)C2,"inconclusive: 29.1 µM [cytotoxic, single point]",–
CCCCCn1c(NCc2ccc(OC)cc2)nc2ccccc21,"inconclusive: 18.4 µM [cytotoxic, single point]",–
Cc1ccc(C(=O)OCC(=O)N(CC(C)C)c2c(N)n(Cc3ccccc3)c(=O)[nH]c2=O)o1,–,inconclusive: -0.766%

# Not a retest: an excerpt of the list.
SMILES,Potency,"activity change, negative = cytotoxic"
Cc1cc(O)c(C(C)C)cc1NC(=S)Nc1cc(C(C)C)c(O)cc1C,"inconclusive: 29.1 µM [cytotoxic, single point]",–
C=CCn1c(O)c(N=NC(=S)Nc2ccc(OC)c(Cl)c2)c2ccccc21,"inconclusive: 5.8 µM [cytotoxic, full curve]",–
COc1ccc(N(CC(=O)Nc2cccnc2)S(=O)(=O)c2ccccc2)cc1OC,–,inactive: -2.71%

# Later entries.

SMILES,Potency,"activity change, negative = cytotoxic"
CN(C)c1ccc(C=NNC(=O)c2cccc3ccccc23)c(Cl)c1,active: 5.17 µM,–
CCCCOc1ccc(N(CC(=O)NC2CCCCC2)C(=O)c2snc(C(N)=O)c2N)cc1,"inconclusive: 23.1 µM [cytotoxic, single point]",–
Cn1cc(C(=O)c2ccc(Cl)cc2Cl)cc1C(=O)N/N=C(\N)COc1cccc(C(F)(F)F)c1,"inconclusive: 29.1 µM [cytotoxic, single point]",–
CN(C)c1cccc(NC(=O)C2Cc3c(-c4ccc(Cl)cc4)ccnc3O2)c1 (configuration not stated),"inconclusive: 29.1 µM [cytotoxic, single point]",–
Cc1ccnc(NC(=O)CNC(=O)COc2ccccc2)c1,"inconclusive: 23.1 µM [rising, single point]",–
COc1ccc(C(C(=O)NC2CCCCC2)N(Cc2ccco2)C(=O)c2snc(C(N)=O)c2N)cc1 (configuration not stated),"inconclusive: 16.4 µM [cytotoxic, single point]",–
CC(=O)N1CCN(c2cc(-c3ccccc3)nc3cc(-c4cccc(Cl)c4)nn23)CC1,"inconclusive: 29.1 µM [cytotoxic, single point]",–
CNCCCCOc1ccccc1-c1ccccc1,"inconclusive: 18.4 µM [cytotoxic, single point]",–
Cc1ccc(Cl)cc1NC(=O)C1CCN(c2nnc(C)c3c(C)n(-c4ccccc4)nc23)CC1,–,inactive: -0.353%
S=C(NCc1ccc(Cl)cc1)NC12CC3CC(CC(C3)C1)C2,"inconclusive: 18.4 µM [cytotoxic, single point]",–
CCc1c(C2(O)CCCCC2)[nH]c2ccc(C(F)(F)F)cc12,"inconclusive: 29.1 µM [cytotoxic, single point]",–
O=C(Nc1ccc(-c2csc(Nc3ccccc3)n2)cc1)c1cccc(C(F)(F)F)c1,"inconclusive: 32.6 µM [cytotoxic, single point]",–
S=C(Nc1ccc(Cl)c(Cl)c1)N1CCOCC1,"inconclusive: 11.6 µM [cytotoxic, single point]",–
FC(F)Oc1ccccc1C1CC(c2ccc(Br)s2)Nc2ncnn21 (configuration not stated),"inconclusive: 20.6 µM [cytotoxic, single point]",–
COc1ccc(C2CC(c3cccc(Br)c3)=NN2c2ccc(S(N)(=O)=O)cc2)cc1 (configuration not stated),"inconclusive: 29.1 µM [cytotoxic, single point]",–
COc1cccc(C(C)NC(=O)Nc2cccc(C(F)(F)F)c2)c1 (configuration not stated),–,inactive: -23%
COc1ccccc1-n1c(SCC(=O)Nc2cc(C)on2)nc2c([nH]c3ccccc32)c1=O,"inconclusive: 29.1 µM [rising, single point]",–
O=C(O)c1cccc(-n2c(/C=C/c3ccccc3)nc3ccccc3c2=O)c1,–,inactive: 3.61%
CCOC(=O)Cc1csc(NS(=O)(=O)c2ccc(C(F)(F)F)cc2)n1,–,inconclusive: -1.6%
Cc1nn(CC(=O)N2CCCC2)c(=O)c2cc3cc(F)ccc3n12,–,inactive: -1.04%
Cc1cccc(-c2cc(=O)c(C(=O)O)cn2-c2ccc(F)cc2F)c1,–,inactive: 2%
